Article PMC7102954, “A crucial RNA-binding lysine residue in the Nab3 RRM domain undergoes SET1 and SET3-responsive methylation”
Numbering of substitutions follows the chain as printed. Names and notes keep the numbering of the source. Results are given in words; binding and its absence hold for the method and conditions named. In cells and extracts the contact can be indirect. Some binding calls cover weakened binding; strength is not graded here. Values belong to the molecule of their own block, whether it stands above or below them.

Sequences of proteins named here, by UniProt entry; tags and fusion partners are left off.
UniProt Q00416: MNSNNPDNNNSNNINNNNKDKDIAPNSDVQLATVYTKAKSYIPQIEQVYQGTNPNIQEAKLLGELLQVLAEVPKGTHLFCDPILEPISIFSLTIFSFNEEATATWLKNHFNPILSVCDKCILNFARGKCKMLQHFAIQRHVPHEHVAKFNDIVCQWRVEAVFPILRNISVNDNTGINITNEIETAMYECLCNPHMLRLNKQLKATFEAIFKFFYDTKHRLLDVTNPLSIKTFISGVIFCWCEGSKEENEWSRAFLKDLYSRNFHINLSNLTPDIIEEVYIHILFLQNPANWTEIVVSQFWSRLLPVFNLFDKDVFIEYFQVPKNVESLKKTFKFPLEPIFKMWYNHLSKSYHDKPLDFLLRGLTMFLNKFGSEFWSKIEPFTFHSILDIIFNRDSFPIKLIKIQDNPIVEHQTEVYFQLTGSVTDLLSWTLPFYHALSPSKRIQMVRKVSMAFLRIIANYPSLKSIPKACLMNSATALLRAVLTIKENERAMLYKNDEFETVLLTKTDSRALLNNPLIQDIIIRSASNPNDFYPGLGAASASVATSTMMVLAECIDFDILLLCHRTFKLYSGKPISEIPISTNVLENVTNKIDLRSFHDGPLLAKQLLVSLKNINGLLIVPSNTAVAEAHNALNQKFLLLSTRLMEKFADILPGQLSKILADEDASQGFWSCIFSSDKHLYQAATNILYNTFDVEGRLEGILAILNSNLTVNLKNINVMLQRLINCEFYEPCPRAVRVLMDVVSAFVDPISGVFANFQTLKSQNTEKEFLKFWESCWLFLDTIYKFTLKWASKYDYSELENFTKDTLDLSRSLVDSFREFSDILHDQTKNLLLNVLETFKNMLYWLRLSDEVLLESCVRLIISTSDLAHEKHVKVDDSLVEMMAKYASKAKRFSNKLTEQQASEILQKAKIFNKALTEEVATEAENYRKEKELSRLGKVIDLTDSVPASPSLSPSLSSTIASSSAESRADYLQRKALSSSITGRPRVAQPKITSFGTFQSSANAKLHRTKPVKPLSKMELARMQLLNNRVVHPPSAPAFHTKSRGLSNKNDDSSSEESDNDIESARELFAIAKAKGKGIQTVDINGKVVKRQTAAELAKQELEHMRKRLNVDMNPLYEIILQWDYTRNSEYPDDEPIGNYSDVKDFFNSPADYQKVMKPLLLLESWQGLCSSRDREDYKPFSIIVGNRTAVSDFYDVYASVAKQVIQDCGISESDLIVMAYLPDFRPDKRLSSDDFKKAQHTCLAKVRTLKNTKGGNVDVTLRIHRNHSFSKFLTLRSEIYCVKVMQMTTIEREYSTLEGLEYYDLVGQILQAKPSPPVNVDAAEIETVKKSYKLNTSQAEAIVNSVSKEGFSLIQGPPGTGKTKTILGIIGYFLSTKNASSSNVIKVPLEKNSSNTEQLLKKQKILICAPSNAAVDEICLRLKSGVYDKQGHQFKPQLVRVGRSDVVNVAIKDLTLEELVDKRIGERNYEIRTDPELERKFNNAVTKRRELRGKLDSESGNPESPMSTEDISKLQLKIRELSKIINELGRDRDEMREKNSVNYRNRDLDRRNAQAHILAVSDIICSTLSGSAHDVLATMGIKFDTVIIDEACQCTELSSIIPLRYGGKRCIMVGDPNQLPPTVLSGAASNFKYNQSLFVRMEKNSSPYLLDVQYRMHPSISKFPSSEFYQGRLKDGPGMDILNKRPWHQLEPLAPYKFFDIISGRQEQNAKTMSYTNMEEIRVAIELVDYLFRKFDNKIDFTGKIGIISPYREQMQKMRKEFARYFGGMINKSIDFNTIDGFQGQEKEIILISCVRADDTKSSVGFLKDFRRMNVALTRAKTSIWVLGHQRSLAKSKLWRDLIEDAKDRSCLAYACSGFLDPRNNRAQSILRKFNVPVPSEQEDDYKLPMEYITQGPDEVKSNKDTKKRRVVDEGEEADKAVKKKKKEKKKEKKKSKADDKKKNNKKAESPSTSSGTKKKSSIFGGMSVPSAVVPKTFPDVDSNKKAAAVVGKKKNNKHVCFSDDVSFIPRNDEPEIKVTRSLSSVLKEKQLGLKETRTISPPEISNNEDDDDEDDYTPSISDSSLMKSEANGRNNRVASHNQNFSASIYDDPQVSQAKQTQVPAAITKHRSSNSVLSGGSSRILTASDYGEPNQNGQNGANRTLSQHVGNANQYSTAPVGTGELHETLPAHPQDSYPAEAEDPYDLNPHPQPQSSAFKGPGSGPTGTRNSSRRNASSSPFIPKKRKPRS

What was measured:
[1] = biological target: T1, Nrd1 (S. cerevisiae (endogenous in yeast cells)) (UniProt P53617); test: co-IP; whole cell lysate of wildtype or nab3-K363R yeast; polyclonal anti-Nrd1 antibody on Protein A-Sepharose, 2 h at 4°C; lysis and wash buffer 50 mM Na-HEPES pH 7.5, 200 mM NaOAc, 0.25% NP-40; immunoblot for Nrd1, Nab3, Sen1, Pgk1; no-antibody control
T1 sequence: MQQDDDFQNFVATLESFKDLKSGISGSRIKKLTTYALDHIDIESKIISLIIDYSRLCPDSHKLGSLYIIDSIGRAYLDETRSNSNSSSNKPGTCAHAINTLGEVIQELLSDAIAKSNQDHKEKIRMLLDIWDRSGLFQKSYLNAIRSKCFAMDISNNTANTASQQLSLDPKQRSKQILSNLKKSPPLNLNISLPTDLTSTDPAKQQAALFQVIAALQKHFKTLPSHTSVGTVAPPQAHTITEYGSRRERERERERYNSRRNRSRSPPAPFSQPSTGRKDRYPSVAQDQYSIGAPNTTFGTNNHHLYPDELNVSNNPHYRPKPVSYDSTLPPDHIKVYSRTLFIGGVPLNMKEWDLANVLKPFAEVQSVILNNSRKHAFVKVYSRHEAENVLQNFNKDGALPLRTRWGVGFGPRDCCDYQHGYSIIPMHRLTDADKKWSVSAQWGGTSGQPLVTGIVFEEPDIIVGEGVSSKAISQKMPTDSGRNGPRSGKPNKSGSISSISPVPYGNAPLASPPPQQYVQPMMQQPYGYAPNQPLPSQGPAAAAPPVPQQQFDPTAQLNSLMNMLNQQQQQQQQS

[2] = biological target: T2, Nab3-K363R (S. cerevisiae) (UniProt P38996); test: co-IP; reciprocal: whole cell lysate of wildtype or nab3-K363R yeast; monoclonal anti-Nab3 antibody on Protein G-Sepharose, 2 h at 4°C; same buffers; immunoblot
T2 sequence: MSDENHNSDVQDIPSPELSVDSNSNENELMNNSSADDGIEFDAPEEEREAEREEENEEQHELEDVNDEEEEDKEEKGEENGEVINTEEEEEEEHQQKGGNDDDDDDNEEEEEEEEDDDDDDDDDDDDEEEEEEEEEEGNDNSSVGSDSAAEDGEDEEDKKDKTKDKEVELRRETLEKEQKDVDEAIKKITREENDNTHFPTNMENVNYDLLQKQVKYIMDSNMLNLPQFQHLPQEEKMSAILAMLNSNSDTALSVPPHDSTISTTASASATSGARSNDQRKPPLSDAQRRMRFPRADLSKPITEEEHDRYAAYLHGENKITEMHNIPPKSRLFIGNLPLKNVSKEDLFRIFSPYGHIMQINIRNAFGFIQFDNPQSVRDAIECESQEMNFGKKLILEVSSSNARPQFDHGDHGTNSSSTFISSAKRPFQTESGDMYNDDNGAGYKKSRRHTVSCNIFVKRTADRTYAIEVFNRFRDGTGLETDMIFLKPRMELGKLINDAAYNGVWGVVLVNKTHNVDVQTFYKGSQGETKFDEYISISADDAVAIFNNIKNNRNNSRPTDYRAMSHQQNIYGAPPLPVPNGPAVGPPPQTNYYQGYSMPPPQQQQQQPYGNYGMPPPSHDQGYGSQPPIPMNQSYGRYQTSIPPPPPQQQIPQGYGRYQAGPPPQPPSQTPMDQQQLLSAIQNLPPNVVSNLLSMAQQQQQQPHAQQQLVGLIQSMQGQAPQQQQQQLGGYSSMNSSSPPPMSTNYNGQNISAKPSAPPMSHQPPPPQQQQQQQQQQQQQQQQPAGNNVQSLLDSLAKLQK

[3] = biological target: T3, Nab3 (wildtype) (S. cerevisiae) (UniProt P38996); test: as above
T3 sequence: T2 sequence with R363K

binding [1]: binds
Molecule: Sen1 (from UniProt Q00416 1-2231)

binding [1]: binds
B1: Nab3 (wildtype) (protein, UniProt P38996 1-802)
chain: T2 sequence with R363K

binding [1]: binds
B2: Nab3-K363R (protein, UniProt P38996 1-802)
chain: T2 sequence

binding [2]: binds
binding [3]: binds
B3: Nrd1 (protein, UniProt P53617 1-575)
chain: T1 sequence
